From the supplement of paper PMC10849652
The list shows a part of the results.

Sequences of proteins named here, by UniProt entry; tags and fusion partners are left off. A change or cut given only in a name is not applied to a line headed by its entry.
UniProt Q9UBQ5, whole entry, looked up: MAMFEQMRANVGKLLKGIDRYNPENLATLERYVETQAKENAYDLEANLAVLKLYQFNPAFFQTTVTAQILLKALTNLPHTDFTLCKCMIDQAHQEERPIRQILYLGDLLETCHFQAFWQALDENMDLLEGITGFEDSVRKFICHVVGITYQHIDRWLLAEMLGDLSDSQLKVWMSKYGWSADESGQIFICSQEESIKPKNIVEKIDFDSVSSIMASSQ
UniProt Q96C19: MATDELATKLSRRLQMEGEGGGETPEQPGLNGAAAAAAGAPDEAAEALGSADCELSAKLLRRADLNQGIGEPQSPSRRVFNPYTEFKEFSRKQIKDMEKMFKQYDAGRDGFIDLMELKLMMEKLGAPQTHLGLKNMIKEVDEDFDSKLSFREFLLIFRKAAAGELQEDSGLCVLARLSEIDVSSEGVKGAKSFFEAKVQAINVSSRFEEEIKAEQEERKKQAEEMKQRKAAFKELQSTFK
UniProt Q7L5Y1: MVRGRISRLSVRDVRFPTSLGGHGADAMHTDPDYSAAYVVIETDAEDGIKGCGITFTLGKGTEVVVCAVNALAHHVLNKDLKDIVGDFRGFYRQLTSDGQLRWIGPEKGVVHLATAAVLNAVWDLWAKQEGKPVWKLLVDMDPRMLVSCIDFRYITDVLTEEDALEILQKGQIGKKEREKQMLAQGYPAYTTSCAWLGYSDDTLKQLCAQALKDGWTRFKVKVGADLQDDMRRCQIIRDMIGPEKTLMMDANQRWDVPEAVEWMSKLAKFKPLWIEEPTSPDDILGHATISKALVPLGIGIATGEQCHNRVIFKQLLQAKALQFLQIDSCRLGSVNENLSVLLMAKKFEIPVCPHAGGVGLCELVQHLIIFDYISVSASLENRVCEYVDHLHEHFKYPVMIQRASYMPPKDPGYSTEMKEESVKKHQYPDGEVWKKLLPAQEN
UniProt P78344: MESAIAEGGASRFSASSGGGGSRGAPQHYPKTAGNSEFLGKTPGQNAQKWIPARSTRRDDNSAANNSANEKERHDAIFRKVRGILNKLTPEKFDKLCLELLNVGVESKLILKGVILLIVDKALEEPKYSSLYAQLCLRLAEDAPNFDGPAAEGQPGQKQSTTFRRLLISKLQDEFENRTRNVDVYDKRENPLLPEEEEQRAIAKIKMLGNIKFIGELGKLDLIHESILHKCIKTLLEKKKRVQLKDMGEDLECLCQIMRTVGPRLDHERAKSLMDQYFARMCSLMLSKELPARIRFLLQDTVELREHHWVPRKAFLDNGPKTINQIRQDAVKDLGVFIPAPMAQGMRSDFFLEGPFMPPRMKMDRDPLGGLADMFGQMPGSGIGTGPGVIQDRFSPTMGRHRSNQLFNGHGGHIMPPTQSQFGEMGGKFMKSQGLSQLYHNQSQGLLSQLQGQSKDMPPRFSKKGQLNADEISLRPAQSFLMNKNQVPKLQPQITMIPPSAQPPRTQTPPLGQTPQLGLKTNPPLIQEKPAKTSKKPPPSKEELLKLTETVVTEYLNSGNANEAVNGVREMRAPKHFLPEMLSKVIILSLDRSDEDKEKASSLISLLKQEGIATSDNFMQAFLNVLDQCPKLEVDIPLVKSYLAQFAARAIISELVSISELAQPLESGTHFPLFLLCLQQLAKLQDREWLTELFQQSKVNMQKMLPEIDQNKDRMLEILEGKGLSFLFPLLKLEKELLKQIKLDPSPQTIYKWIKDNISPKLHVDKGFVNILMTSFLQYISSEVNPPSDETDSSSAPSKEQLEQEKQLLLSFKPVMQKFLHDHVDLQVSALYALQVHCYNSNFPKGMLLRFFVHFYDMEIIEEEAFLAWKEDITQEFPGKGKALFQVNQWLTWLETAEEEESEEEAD
UniProt P09104, whole entry, looked up: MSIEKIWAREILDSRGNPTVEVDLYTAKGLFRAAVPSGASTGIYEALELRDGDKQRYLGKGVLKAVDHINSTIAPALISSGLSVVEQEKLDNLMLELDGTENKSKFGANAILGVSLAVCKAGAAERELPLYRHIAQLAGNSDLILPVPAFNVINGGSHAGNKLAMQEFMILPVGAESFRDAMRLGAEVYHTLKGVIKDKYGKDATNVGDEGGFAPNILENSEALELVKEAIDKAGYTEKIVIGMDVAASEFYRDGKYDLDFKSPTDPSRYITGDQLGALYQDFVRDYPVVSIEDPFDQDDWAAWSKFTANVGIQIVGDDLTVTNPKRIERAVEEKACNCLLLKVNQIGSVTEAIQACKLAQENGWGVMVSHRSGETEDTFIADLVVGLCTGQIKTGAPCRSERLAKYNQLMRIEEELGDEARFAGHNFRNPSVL
UniProt Q13347, whole entry, looked up: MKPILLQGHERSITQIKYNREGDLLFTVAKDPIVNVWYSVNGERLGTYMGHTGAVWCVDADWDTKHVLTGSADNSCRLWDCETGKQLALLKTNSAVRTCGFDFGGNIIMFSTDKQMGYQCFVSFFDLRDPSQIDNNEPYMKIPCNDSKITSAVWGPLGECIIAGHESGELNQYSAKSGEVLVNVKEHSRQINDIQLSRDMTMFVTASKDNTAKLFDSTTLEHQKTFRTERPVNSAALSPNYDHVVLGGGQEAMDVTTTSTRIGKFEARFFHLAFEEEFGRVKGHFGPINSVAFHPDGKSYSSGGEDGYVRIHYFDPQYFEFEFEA
UniProt O95163: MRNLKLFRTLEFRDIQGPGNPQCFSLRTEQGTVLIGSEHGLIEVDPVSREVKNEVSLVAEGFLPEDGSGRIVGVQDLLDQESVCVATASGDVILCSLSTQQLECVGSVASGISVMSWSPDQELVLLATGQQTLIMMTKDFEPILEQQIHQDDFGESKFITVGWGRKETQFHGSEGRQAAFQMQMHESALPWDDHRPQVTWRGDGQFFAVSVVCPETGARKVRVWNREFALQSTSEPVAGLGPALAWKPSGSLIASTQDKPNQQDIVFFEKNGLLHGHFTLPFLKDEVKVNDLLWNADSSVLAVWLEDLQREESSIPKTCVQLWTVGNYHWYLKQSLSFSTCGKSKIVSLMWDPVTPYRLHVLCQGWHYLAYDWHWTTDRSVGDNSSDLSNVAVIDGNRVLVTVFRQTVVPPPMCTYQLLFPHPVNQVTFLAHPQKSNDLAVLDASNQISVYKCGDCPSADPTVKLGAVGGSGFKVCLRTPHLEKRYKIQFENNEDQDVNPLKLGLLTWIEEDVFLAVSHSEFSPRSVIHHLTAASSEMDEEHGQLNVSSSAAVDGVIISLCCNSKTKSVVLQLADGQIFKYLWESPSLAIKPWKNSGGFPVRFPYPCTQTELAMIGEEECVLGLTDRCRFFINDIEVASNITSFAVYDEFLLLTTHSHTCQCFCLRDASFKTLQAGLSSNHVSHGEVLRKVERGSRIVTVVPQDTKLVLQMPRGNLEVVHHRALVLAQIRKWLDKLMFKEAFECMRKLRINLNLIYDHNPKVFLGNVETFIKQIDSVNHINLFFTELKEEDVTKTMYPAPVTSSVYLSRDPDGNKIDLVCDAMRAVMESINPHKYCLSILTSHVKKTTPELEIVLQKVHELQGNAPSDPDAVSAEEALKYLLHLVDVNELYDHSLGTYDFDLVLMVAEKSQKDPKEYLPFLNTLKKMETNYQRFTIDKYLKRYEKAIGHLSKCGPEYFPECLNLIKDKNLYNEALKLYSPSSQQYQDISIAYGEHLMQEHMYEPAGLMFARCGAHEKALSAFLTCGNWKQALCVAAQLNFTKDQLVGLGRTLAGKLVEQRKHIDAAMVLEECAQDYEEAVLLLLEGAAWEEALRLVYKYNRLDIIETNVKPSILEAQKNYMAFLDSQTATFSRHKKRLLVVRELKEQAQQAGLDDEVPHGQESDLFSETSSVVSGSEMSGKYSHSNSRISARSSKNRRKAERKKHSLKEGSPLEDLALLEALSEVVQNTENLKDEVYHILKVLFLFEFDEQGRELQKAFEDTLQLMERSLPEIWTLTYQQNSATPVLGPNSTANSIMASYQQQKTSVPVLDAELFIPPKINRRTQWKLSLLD

Assays:
Assay in all cases: log2 fold change, soluble protein after heating vs DMSO (PISA); higher = thermal stabilisation; K562 cells, 10 uM, 30 min; active = over 0.2 and 3.5 SD of the protein, either way, in both replicates (recomputed)
[1] = compound: CC1=C(C=C(C=C1)NC(=O)C2=CC(=CC=C2)C(C)(C)C#N)NC3=CC4=C(C=C3)N=CN(C4=O)C
In short: (§1)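 For each measurement, 10 μM compound was applied for 30 min to K562 cells at 2×10^6 cells/mL. Aliquots were heated for 3 min across 48°C-58°C, pooled, and extracted in PBS with 0.5% NP-40 at 4°C; the supernatant after 21,000xg for 90 min was soluble protein. This was quantified by TMTpro 16plex LC-MS/MS with channel sums equalised, and thermal stability was reported relative to control samples from duplicates, on a log2 fold-change scale.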

[2] = compound: CC1=C(C=C(C=C1)NC(=O)C2=CC(=CC=C2)N(C)C)NC(=O)C3=CC=C(C=C3)O
In short: as §1

[3] = compound: CC1=CC=C(C=C1)SC2=C3C=C(SC3=CN=C2)C(=O)N
In short: as §1

[4] = compound: CC1=NC(=CC=C1)C2=C(N=C(N2)C(C)(C)C)C3=CC4=NC=CN=C4C=C3
In short: as §1

Nexturastat A = compound: CCCCN(Cc1ccc(C(=O)NO)cc1)C(=O)Nc1ccccc1 [Nexturastat A]
In short: as §1

vemurafenib = compound: CCCS(=O)(=O)Nc1ccc(F)c(C(=O)c2c[nH]c3ncc(-c4ccc(Cl)cc4)cc23)c1F [vemurafenib]
In short: as §1

[5] = compound: CCCS(=O)(=O)Nc1ccc(F)c(C(=O)c2c[nH]c3ncc(Cl)cc23)c1F
In short: as §1

[6] = compound: CCCc1cc(C)[nH]c(=O)c1CNC(=O)c1cc(-c2ccnc(N3CCN(C)CC3)c2)cc2c1cnn2C(C)C
In short: as §1

givinostat = compound: CCN(CC)Cc1ccc2cc(COC(=O)Nc3ccc(C(=O)NO)cc3)ccc2c1 [givinostat]
In short: as §1

barasertib = compound: CCN(CCCOc1ccc2c(Nc3cc(CC(=O)Nc4cccc(F)c4)[nH]n3)ncnc2c1)CCOP(=O)(O)O [barasertib]
In short: as §1

[7] = compound: CC[C@@H]1C(=O)N(C)c2cnc(Nc3ccc(C(=O)NC4CCN(C)CC4)cc3OC)nc2N1C1CCCC1
In short: as §1

volasertib = compound: CC[C@@H]1C(=O)N(C)c2cnc(Nc3ccc(C(=O)N[C@H]4CC[C@H](N5CCN(CC6CC6)CC5)CC4)cc3OC)nc2N1C(C)C [volasertib]
In short: as §1

[8] = compound: CC[C@H](C)N1C=C(C2=C(C=C(C=C21)C3=CN=C(C=C3)N4CCNCC4)C(=O)NCC5=C(C=C(NC5=O)C)C)C
In short: as §1

epoxomicin = compound: CC[C@H](C)[C@@H](C(=O)N[C@@H]([C@@H](C)O)C(=O)N[C@@H](CC(C)C)C(=O)[C@]1(CO1)C)NC(=O)[C@H]([C@@H](C)CC)N(C)C(=O)C [epoxomicin]
In short: as §1

[9] = compound: CCn1c(C(=O)N(C2CC2)C2CC2)cc2c3c(ncn3C)c(Nc3cc(C)n(C)n3)nc21
In short: as §1

[10] = compound: CCn1cc(-c2ccnc3[nH]c(-c4cccc(CN(C)C)c4)cc23)c(-c2ccc(NC(=O)N(C)C)cc2)n1
In short: as §1

[11] = compound: CN(C)CC(=O)Nc1ccc2[nH]c(=O)c3ccccc3c2c1
In short: as §1

rosiglitazone = compound: CN(CCOC1=CC=C(C=C1)C[C@H]2C(=O)NC(=O)S2)C3=CC=CC=N3 (racemic) [rosiglitazone]
In short: as §1

[12] = compound: CN1C2=C(C3=C1C(=O)N(N=C3)CC4=CC(=CC=C4)N)SC(=C2)S(=O)C
In short: as §1

[13] = compound: CN1CCC(CNc2ccc3ncc(-c4cccc(OC(F)(F)F)c4)n3n2)CC1
In short: as §1

Measured: log2 fold change

EIF3K (UniProt Q9UBQ5)
inactive: [1] 0.03 | [2] -0.04 | [3] 0.024 | [4] 0.024 | Nexturastat A 0.01 | vemurafenib 0.016 | [5] 0.053 | [6] -0.01 | givinostat -0.011 | barasertib 0.033 | [7] -0.048 | volasertib -0.054 | [8] 0.053 | epoxomicin 0.077 | [9] 0.031 | [10] -0.028 | [11] 0.018 | rosiglitazone 0.024 | [12] -0.02 | [13] -0.001

EMC2 (UniProt Q15006)
inactive: [1] -0.017 | [2] 0.018 | [3] -0.02 | [4] 0.113 | Nexturastat A -0.1 | vemurafenib 0.037 | [5] 0.013 | [6] -0.016 | givinostat -0.006 | barasertib 0 | [7] -0.002 | volasertib -0.005 | [8] 0.019 | epoxomicin -0.018 | [9] -0.007 | [10] -0.034 | [11] 0.005 | rosiglitazone -0.026 | [12] -0.047 | [13] 0.006

EFHD2 (UniProt Q96C19)
inactive: [1] 0.007 | [2] 0.031 | [3] 0.018 | [4] 0.088 | Nexturastat A -0.044 | vemurafenib 0.071 | [5] 0.103 | [6] -0.012 | givinostat 0.024 | barasertib 0.036 | [7] -0.202 | volasertib -0.176 | [8] 0.058 | epoxomicin 0.057 | [9] -0.028 | [10] -0.014 | [11] 0.042 | rosiglitazone 0.067 | [12] -0.035 | [13] -0.031

ENOSF1 (UniProt Q7L5Y1)
inactive: [1] -0.031 | [2] -0.002 | [3] 0.02 | [4] -0.028 | Nexturastat A 0.06 | vemurafenib -0.062 | [5] -0.032 | [6] -0.06 | givinostat 0.051 | barasertib 0.025 | [7] 0.046 | volasertib 0.028 | [8] -0.068 | epoxomicin 0.013 | [9] -0.066 | [10] -0.032 | [11] -0.031 | rosiglitazone 0.029 | [12] -0.045 | [13] 0.041

EIF4G2 (UniProt P78344)
inactive: [1] -0.014 | [2] 0.058 | [3] 0.031 | [4] -0.026 | Nexturastat A 0.437 | vemurafenib 0.049 | [5] 0.089 | [6] 0.161 | givinostat 0.163 | barasertib 0.032 | [7] 0.334 | volasertib -0.182 | [8] 0.143 | epoxomicin -0.224 | [9] -0.146 | [10] 0.101 | [11] 0.04 | rosiglitazone -0.005 | [12] 0.348 | [13] -0.039

ENO2 (UniProt P09104)
inactive: [1] -0.033 | [2] 0.04 | [3] 0.011 | [4] -0.007 | Nexturastat A -0.068 | vemurafenib 0.034 | [5] 0.035 | [6] -0.025 | givinostat -0.013 | barasertib -0.005 | [7] 0.029 | volasertib 0.066 | [8] -0.034 | epoxomicin -0.008 | [9] 0.014 | [10] 0.021 | [11] 0.026 | rosiglitazone 0.009 | [12] -0.052 | [13] -0.068

EIF3I (UniProt Q13347)
inactive: [1] 0.014 | [2] -0.012 | [3] 0.027 | [4] -0.011 | Nexturastat A 0.127 | vemurafenib 0.049 | [5] 0.047 | [6] 0.09 | givinostat 0.092 | barasertib 0.075 | [7] -0.031 | volasertib -0.331 | [8] 0.111 | epoxomicin 0.021 | [9] -0.068 | [10] -0.03 | [11] 0.062 | rosiglitazone 0.055 | [12] 0.066 | [13] -0.097

ELP1 (UniProt O95163)
inactive: [1] 0 | [2] 0.015 | [3] 0.004 | [4] 0.015 | Nexturastat A -0.012 | vemurafenib -0.008 | [5] 0.018 | [6] -0.066 | givinostat -0.004 | barasertib 0.009 | [7] 0.008 | volasertib -0.071 | [8] -0.012 | epoxomicin 0.014 | [9] -0.018 | [10] -0.011 | [11] 0.032 | rosiglitazone 0 | [12] -0.045 | [13] -0.015
